Taken from: PubChem BioAssay AID1671195 (Yale University, 2021)
Shown is one part, drawn at random, of about 22,000 deposited reagents. About 1,510 of them (6.9%) were called active. 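Active includes knockdowns raising or lowering LDL uptake; positive z-scores mean more uptake, negative mean less.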

- Purpose: 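Regulators of LDL receptor activity judged by labelled LDL uptake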 (primary screen)
- System: human Huh7 hepatoma cells
- Knock-down reagent: siRNA pool against human genes, 18 nM
- Duration: about 2 to 2.5 days of knockdown, then 8 h LDL uptake
- Treatment: DiI-labelled LDL at 30 µg/ml for 8 h, in lipoprotein-deficient serum medium
- Read-out: 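Per-cell DiI-LDL intensity by automated imaging; well means scaled to the plate median and given as a robust z-score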
- Reading the numbers: robust z-score: higher = more LDL uptake after knockdown
- Active means: 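Active when two or more replicates show a robust z-score above 2 or below -2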

| Target gene | robust z-score, replicate 1 | robust z-score, replicate 2 | robust z-score, replicate 3 | Call |
| --- | --- | --- | --- | --- |
| P2RY1 | 0.666 | 0.13 | 1.12 | inactive |
| TEX55 | 0.782 | 0.491 | 1.16 | inactive |
| LTB4R2 | -0.45 | -0.524 | -0.261 | inactive |
| SLC67A1-AS | -0.9 | -0.209 | -1.23 | inactive |
| ZNF671 | 1.25 | 0.761 | 1.08 | inactive |
| TUBB4A | -0.639 | -0.629 | -0.857 | inactive |
| DRD5P2 | 0.142 | -1.1 | -0.026 | inactive |
| DIRC1 | -0.259 | 0.81 | -0.062 | inactive |
| LOC387830 (retired record) | -0.494 | -0.268 | -0.127 | inactive |
| HPCA | -0.181 | 0.0961 | 0.306 | inactive |
| IL17C | 1.34 | -0.64 | 0.637 | inactive |
| ATRX | 0.289 | -0.0261 | 0.3 | inactive |
| OR2M4 | 1.08 | 1.16 | -0.205 | inactive |
| CDC45 | -0.305 | -0.0691 | 0.156 | inactive |
| RUNX1 | -0.097 | 0.00103 | 0.102 | inactive |
| LOC441672 (retired record) | 1.55 | 0.72 | 0.7 | inactive |
| FLJ40288 | 1.56 | 1.64 | 1.54 | inactive |
| TRIM45 | -0.197 | -1.36 | -0.305 | inactive |
| MEF2A | 1.44 | 2.6 | 1.09 | inactive |
| PDZRN4 | -0.744 | 2.58 | 0.557 | inactive |
| HSP90AB2P | 1.19 | 0.689 | 1.41 | inactive |
| LSM3 | -0.397 | -0.342 | -0.209 | inactive |
| LOC389654 (retired record) | 0.742 | 1.64 | 1.61 | inactive |
| EIF3B | -1.76 | -1.07 | -1.47 | inactive |
| NOC3L | 0.68 | 0.667 | 1.2 | inactive |
| DIO2 | 0.121 | -0.347 | -0.389 | inactive |
| ZNF620 | -0.327 | -0.451 | -0.223 | inactive |
| ABCC5 | 1.78 | 2.72 | 1.11 | inactive |
| ARFGEF2 | -0.508 | -0.337 | -0.995 | inactive |
| AUP1 | -0.776 | -0.602 | 0.0384 | inactive |
| MCHR1 | 1.41 | 1.67 | 1.42 | inactive |
| SARAF | 0.916 | 2.01 | -0.223 | inactive |
| TAF9 | 2.15 | 1.73 | 0.967 | inactive |
| MYO1A | 0.546 | 2.68 | 0.657 | inactive |
| GDPD4 | -0.442 | -1.86 | -1.05 | inactive |
| LOC389905 (retired record) | 0.782 | 0.732 | 0.215 | inactive |
| UBALD2 | -0.903 | -0.79 | -0.507 | inactive |
| CD3D | 1.67 | 1.55 | 1.65 | inactive |
| PIK3AP1 | -0.0358 | 1.26 | 1.29 | inactive |
| HAMP | 0.154 | -0.916 | -0.097 | inactive |
| MRPS31 | -0.778 | -2.13 | -0.0943 | inactive |
| EIF4G3 | -0.881 | -1.41 | -2.31 | inactive |
| PTPN13 | 1.38 | 0.885 | 1.16 | inactive |
| LOC402094 (retired record) | -0.455 | 0.185 | -0.255 | inactive |
| GOLGB1 | -0.687 | -0.0481 | -0.676 | inactive |
| RIPPLY3 | -0.162 | -0.958 | -0.182 | inactive |
| PKHD1 | -1.06 | -1.03 | -1.53 | inactive |
| MTG2 | -2.13 | -0.532 | -1.82 | active |
| ADRA2A | 1.04 | 0.87 | 1.96 | inactive |
| NFATC4 | 0.76 | 1.19 | 0.518 | inactive |
| KNOP1 | 0.77 | 1.45 | 1.1 | inactive |
| TTC16 | -0.469 | 0.406 | 0.0319 | inactive |
| HAT1 | 0.538 | -0.06 | 0.735 | inactive |
| ATAT1 | 0.899 | 0.485 | 0.0903 | inactive |
| FAM20B | -1.84 | -0.716 | -0.942 | inactive |
| FAF1 | 0.685 | 0.35 | 0.638 | inactive |
| TM9SF3 | 1.32 | 1.42 | 1.31 | inactive |
| RPSAP55 | -0.501 | -0.5 | -0.408 | inactive |
| TRAPPC2 | -0.211 | -0.413 | -1.72 | inactive |
| ZNF696 | -1.4 | -0.766 | -0.881 | inactive |
| FAAH | 0.515 | -0.147 | -0.925 | inactive |
| SNX19 | -0.593 | -1.05 | -0.742 | inactive |
| GEN1 | 0.752 | 0.538 | 1.27 | inactive |
| ASPG | -0.0407 | -0.23 | -0.0927 | inactive |
| ADAMDEC1 | -0.829 | -1.27 | -0.0955 | inactive |
| MAP2 | -0.987 | -0.273 | -0.734 | inactive |
| LOC442012 (retired record) | -1.07 | -1.11 | -0.684 | inactive |
| PDZRN3 | 1.68 | 0.175 | 0.878 | inactive |
